Measurements from paper doi:10.1101/2022.08.09.503213 (bioRxiv, 2022).
No constants are given. Whether binding was seen depends on the method and setting.

Target: IFT-A(122^TULPmut): human IFT-A complex with IFT122 E1052R/Y1058A/S1062A/E1217R/D1218R (human)
Assay: SEC

binding: no binding
B1: TULP3, full-length human (from TULP3^ZZ, TEV-cleaved) (protein, UniProt O75386 1-442)
chain: MEASRCRLSPSGDSVFHEEMMKMRQAKLDYQRLLLEKRQRKKRLEPFMVQPNPEARLRRAKPRASDEQTPLVNCHTPHSNVILHGIDGPAAVLKPDEVHAPSVSSSVVEEDAENTVDTASKPGLQERLQKHDISESVNFDEETDGISQSACLERPNSASSQNSTDTGTSGSATAAQPADNLLGDIDDLEDFVYSPAPQGVTVRCRIIRDKRGMDRGLFPTYYMYLEKEENQKIFLLAARKRKKSKTANYLISIDPVDLSREGESYVGKLRSNLMGTKFTVYDRGICPMKGRGLVGAAHTRQELAAISYETNVLGFKGPRKMSVIIPGMTLNHKQIPYQPQNNHDSLLSRWQNRTMENLVELHNKAPVWNSDTQSYVLNFRGRVTQASVKNFQIVHKNDPDYIVMQFGRVADDVFTLDYNYPLCAVQAFGIGLSSFDSKLACE
